From publication doi:10.1101/2024.09.09.24313318
No constants are given. Whether binding was seen depends on the method and setting. Binding seen in cells or lysates may run through a third protein. These calls come from enrichment with a bait or labelling near it, and not all partners need be listed.

By UniProt entry, the sequences of proteins in these tests, tags left out.
UniProt O95817, whole entry: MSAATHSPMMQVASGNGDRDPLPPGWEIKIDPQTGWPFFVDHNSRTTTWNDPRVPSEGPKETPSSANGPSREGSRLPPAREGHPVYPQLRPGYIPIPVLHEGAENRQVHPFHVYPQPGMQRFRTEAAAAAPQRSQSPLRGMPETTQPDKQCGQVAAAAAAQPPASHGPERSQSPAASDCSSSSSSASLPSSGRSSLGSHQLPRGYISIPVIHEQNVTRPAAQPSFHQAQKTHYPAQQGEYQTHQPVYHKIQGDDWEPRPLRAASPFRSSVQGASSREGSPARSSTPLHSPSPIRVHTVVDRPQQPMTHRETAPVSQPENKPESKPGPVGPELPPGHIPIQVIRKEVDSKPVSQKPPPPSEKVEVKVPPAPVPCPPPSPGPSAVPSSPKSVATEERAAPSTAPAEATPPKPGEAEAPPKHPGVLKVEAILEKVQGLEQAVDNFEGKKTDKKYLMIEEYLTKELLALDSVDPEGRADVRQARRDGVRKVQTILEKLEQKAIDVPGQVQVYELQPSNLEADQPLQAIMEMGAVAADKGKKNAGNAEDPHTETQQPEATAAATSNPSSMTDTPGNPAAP

B1: Hsp70-binding protein 1 (protein, UniProt Q9NZL4 1-359)
chain: MSDEGSRGSRLPLALPPASQGCSSGGGGGGSSAGGSGNSRPPRNLQGLLQMAITAGSEEPDPPPEPMSEERRQWLQEAMSAAFRGQREEVEQMKSCLRVLSQPMPPTAGEAEQAADQQEREGALELLADLCENMDNAADFCQLSGMHLLVGRYLEAGAAGLRWRAAQLIGTCSQNVAAIQEQVLGLGALRKLLRLLDRDACDTVRVKALFAISCLVREQEAGLLQFLRLDGFSVLMRAMQQQVQKLKVKSAFLLQNLLVGHPEHKGTLCSMGMVQQLVALVRTEHSPFHEHVLGALCSLVTDFPQGVRECREPELGLEELLRHRCQLLQQHEEYQEELEFCEKLLQTCFSSPADDSMDR
B2: CASP4 (protein, UniProt P49662 1-377)
chain: MAEGNHRKKPLKVLESLGKDFLTGVLDNLVEQNVLNWKEEEKKKYYDAKTEDKVRVMADSMQEKQRMAGQMLLQTFFNIDQISPNKKAHPNMEAGPPESGESTDALKLCPHEEFLRLCKERAEEIYPIKERNNRTRLALIICNTEFDHLPPRNGADFDITGMKELLEGLDYSVDVEENLTARDMESALRAFATRPEHKSSDSTFLVLMSHGILEGICGTVHDEKKPDVLLYDTIFQIFNNRNCLSLKDKPKVIIVQACRGANRGELWVRDSPASLEVASSQSSENLEEDAVYKTHVEKDFIAFCSSTPHNVSWRDSTMGSIFITQLITCFQKYSWCCHLEEVFRKVQQSFETPRAKAQMPTIERLSMTRYFYLFPGN

Molecular target: BioID-BAG3 (BAG cochaperone 3, Bcl-2-associated athanogene 3, fused to the BioID biotin ligase) (UniProt O95817)
Assay: proximity labelling

Molecule | binding
NADH dehydrogenase 1 beta subcomplex subunit 3 (from UniProt O43676 1-98) | binds
NADH dehydrogenase 1 beta subcomplex subunit 6 (from UniProt O95139 1-128) | binds
heat shock 70 kDa protein 6 (from UniProt P17066 1-643) | binds
CASP1 (from UniProt P29466 1-404) | binds
Bcl-2-associated transcription factor 1 (from UniProt Q9NYF8 1-920) | binds
NADH dehydrogenase flavoprotein 1, mitochondrial (from UniProt P49821 21-464) | binds
complement component 1 Q subcomponent-binding protein, mitochondrial (from UniProt Q07021 74-282) | binds
B1 | binds
B2 | binds
